Some of the results follow.

Protein sequences, listed by entry. Tags and fused reporters are not part of them. Lines headed by an entry give the natural chain unless they say otherwise; changes in a name come on top.
UniProt Q13686: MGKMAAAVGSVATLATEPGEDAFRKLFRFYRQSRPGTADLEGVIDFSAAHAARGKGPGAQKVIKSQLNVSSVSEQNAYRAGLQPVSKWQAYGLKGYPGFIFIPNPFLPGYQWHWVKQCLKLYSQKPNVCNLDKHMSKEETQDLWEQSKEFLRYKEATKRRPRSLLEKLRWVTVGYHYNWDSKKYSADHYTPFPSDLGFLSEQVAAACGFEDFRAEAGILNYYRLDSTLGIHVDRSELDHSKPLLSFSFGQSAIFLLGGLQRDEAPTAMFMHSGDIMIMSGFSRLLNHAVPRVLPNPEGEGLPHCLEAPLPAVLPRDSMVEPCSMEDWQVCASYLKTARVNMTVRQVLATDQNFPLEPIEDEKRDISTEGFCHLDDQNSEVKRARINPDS
UniProt P35611: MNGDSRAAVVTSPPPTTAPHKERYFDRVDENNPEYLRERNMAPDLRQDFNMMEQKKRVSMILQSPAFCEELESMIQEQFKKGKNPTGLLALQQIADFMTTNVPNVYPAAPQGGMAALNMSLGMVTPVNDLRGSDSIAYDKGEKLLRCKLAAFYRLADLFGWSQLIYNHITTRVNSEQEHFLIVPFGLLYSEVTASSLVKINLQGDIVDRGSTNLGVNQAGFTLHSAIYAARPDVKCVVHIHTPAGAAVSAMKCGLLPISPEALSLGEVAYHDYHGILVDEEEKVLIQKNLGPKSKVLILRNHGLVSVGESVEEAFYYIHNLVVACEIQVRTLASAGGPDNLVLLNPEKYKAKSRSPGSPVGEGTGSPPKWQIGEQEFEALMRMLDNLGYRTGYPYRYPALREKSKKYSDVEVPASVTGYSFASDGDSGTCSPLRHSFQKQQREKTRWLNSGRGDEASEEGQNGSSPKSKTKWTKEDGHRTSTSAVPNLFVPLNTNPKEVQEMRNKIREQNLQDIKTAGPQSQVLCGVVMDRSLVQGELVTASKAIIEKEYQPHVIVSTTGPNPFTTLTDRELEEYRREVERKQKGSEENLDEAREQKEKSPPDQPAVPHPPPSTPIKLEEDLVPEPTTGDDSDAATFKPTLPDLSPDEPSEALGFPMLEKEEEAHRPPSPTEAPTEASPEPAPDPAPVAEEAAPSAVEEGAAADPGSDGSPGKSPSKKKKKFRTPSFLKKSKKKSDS
UniProt Q6ZN18: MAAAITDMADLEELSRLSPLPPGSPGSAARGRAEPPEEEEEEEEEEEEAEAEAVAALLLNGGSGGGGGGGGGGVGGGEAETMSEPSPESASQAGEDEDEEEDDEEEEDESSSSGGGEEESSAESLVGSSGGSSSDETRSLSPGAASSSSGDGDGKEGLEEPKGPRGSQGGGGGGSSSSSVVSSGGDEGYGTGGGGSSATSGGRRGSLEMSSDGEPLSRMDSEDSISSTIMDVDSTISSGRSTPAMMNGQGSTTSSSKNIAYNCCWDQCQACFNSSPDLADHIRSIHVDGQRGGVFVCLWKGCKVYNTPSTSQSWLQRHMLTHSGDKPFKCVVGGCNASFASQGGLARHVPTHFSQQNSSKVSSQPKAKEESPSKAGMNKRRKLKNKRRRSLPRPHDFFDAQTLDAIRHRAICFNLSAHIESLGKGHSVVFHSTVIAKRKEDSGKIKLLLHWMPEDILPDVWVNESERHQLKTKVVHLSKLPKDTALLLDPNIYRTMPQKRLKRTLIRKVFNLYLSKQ
UniProt Q9NZD4: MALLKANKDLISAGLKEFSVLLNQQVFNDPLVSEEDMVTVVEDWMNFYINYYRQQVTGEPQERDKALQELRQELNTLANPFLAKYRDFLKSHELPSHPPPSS
UniProt Q9NVV5: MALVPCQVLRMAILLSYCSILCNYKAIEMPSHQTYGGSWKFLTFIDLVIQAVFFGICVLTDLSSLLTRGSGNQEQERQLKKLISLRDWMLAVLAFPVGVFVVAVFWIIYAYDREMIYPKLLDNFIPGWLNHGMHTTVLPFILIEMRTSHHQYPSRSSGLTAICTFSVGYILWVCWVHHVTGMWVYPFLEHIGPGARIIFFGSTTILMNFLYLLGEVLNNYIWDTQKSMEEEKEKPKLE
UniProt O75342: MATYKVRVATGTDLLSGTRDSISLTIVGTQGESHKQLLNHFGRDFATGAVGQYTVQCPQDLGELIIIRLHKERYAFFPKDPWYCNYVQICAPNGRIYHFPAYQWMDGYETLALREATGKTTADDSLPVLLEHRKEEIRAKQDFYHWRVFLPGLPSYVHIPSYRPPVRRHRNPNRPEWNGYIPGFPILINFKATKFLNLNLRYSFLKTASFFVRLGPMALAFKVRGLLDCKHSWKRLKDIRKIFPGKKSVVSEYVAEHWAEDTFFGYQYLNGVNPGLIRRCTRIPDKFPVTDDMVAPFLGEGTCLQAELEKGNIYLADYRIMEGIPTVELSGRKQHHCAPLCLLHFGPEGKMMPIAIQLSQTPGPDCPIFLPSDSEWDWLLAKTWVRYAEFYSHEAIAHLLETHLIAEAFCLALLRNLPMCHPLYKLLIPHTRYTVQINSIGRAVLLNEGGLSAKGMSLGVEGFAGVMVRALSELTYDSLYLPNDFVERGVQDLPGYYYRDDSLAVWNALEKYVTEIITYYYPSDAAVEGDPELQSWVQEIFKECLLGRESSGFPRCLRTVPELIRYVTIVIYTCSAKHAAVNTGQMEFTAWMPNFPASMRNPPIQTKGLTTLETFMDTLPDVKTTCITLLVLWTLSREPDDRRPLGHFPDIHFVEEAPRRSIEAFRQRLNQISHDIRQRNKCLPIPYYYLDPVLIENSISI
UniProt Q9UPW5: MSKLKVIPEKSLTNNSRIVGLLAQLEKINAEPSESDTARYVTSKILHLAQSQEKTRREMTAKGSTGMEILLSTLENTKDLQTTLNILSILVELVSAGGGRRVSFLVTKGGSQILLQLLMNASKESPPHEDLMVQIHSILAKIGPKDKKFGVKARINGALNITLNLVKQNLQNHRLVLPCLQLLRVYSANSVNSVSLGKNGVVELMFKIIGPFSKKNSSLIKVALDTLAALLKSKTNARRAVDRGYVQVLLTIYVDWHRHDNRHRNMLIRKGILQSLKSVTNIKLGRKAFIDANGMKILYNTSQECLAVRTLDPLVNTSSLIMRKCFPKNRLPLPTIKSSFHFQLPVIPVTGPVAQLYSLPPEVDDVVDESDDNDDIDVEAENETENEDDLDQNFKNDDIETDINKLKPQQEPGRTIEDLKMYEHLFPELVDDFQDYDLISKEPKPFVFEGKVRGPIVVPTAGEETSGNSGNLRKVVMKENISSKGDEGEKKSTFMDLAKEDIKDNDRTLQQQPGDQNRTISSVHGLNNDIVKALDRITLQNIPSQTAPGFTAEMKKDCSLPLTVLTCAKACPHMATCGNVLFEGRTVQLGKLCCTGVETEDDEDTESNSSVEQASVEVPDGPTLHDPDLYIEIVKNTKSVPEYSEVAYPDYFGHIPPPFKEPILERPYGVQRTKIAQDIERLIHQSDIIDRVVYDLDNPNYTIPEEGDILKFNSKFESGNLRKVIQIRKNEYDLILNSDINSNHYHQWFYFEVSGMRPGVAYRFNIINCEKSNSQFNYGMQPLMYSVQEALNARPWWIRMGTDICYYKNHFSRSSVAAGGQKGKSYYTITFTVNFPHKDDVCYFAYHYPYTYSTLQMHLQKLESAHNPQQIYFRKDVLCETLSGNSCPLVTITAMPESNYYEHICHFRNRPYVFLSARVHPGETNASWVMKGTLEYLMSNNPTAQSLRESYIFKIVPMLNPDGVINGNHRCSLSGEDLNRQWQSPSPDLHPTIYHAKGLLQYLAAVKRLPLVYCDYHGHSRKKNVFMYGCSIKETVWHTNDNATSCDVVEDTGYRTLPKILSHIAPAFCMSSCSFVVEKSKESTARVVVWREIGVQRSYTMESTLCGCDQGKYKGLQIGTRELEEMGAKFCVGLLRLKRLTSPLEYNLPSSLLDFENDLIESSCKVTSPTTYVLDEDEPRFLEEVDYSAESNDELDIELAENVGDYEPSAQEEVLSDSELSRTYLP
UniProt P51857: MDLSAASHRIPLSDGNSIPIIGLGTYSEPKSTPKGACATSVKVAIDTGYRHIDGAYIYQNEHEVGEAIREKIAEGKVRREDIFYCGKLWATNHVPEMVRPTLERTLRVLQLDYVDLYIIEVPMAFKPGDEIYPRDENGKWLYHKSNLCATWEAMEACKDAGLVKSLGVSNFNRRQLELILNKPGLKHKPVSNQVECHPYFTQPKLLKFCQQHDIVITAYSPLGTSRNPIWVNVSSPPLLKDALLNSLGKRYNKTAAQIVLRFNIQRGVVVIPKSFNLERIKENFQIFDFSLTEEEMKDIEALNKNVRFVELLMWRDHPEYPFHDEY
UniProt P20933: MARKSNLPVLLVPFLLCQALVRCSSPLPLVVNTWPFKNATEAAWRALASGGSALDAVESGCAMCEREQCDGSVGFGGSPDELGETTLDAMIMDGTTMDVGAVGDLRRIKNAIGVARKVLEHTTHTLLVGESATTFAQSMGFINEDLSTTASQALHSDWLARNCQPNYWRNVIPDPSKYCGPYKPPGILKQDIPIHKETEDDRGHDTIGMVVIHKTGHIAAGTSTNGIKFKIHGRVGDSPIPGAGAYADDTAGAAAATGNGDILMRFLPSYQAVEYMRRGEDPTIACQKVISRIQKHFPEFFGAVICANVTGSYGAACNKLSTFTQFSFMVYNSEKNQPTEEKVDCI
UniProt P35612: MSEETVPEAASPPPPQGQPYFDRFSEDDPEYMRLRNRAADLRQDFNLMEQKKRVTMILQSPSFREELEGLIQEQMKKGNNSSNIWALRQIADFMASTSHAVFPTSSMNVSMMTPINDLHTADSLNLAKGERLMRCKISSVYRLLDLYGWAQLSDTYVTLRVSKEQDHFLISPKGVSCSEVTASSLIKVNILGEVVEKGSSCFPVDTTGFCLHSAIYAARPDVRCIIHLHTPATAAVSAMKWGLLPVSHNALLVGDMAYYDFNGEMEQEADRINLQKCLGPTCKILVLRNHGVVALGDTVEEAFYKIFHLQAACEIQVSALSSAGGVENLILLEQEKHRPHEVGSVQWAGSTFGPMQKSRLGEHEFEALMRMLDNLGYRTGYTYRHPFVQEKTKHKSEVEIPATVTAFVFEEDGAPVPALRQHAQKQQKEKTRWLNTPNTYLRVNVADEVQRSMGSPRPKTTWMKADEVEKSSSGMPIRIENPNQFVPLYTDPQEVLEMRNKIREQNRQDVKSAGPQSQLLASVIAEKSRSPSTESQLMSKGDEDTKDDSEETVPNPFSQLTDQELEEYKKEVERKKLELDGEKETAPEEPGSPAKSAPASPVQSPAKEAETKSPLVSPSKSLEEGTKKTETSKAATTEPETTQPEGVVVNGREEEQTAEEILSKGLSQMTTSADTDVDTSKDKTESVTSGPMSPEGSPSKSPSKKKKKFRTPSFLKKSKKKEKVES
UniProt Q9UPQ3: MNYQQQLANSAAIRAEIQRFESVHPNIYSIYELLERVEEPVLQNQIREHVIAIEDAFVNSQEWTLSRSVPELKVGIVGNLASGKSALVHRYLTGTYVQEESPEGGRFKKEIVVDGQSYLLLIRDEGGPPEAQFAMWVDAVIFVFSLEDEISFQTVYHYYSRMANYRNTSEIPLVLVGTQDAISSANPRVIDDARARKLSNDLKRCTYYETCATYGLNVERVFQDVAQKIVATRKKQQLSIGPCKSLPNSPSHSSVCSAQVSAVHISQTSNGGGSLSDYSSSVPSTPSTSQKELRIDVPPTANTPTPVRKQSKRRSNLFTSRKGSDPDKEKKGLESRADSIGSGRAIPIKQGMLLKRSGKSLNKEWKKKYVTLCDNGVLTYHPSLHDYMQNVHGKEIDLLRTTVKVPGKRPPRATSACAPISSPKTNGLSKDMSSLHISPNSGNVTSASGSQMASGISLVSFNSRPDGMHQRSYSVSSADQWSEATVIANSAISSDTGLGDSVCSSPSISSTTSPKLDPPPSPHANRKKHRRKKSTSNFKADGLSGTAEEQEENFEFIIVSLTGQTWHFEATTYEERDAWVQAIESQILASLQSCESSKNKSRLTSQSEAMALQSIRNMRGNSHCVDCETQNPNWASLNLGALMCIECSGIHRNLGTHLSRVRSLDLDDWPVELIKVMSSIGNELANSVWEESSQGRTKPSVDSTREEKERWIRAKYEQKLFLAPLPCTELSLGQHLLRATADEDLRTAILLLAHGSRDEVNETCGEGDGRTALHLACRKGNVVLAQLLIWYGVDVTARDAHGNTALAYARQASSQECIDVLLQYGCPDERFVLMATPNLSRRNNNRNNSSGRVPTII
UniProt Q96F25: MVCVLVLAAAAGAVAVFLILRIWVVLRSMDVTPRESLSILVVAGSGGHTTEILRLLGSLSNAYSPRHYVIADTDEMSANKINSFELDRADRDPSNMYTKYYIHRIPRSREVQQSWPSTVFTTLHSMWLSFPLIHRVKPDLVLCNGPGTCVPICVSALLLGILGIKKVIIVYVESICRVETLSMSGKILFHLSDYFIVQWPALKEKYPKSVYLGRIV
UniProt Q9NYG5, whole entry, looked up: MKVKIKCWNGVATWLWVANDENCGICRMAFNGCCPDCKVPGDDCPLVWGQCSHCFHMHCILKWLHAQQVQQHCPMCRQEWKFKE
UniProt Q9BS18, whole entry, looked up: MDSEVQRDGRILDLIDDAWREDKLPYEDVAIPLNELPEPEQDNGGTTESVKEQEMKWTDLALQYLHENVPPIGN

The source of these data is the supplement of paper PMC10849652.

Common to all, as to assay: log2 fold change, soluble protein after heating vs DMSO (PISA); higher = thermal stabilisation; K562 cells, 10 uM, 30 min; active = over 0.2 and 3.5 SD of the protein, either way, in both replicates (recomputed)
Compound in assay [1]: C[C@@H](Oc1cc(-c2cnn(C3CCNCC3)c2)cnc1N)c1c(Cl)ccc(F)c1Cl [crizotinib]
Summed up: (§1)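 K562 cells at 2×10^6 cells/mL were given 10 μM compound for 30 min. Aliquots then went through 3 min of heating across 48°C-58°C, were pooled, and were extracted in PBS with 0.5% NP-40 at 4°C, and the supernatant after 21,000xg for 90 min was quantified by TMTpro 16plex LC-MS/MS with channel sums equalised. Thermal stability relative to control samples, from duplicates, is given as log2 fold change.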

Compound in assay [2]: C[C@@H]1COCCN1C2=NC(=NC(=C2)C3(CC3)S(=O)(=O)C)C4=C5C=CNC5=CC=C4
The method, boiled down:
as §1

Compound in assay [3]: C[C@H](C1=CC=C(C=C1)C(=O)NC2=C3C=CNC3=NC=C2)N
The method, boiled down:
as §1

Compound in assay [4]: C[C@H](Nc1ncnc2nc[nH]c12)c1cc2cccc(Cl)c2c(=O)n1-c1ccccc1 [duvelisib]
Summed up:
as §1

Compound in assay [5]: Cc1cc(Nc2cc(CN3CCOCC3)c3nc(C)c(Cc4ccc(Cl)cc4F)n3n2)n[nH]1 [gandotinib]
Summed up: as §1

Compound in assay [6]: Cc1cc(Nc2cc(N3CCN(C)CC3)nc(Sc3ccc(NC(=O)C4CC4)cc3)n2)n[nH]1 [tozasertib]
The method, boiled down: as §1

Compound in assay [7]: Cc1cc(SCc2sc(-c3ccc(C(F)(F)F)cc3)nc2C)ccc1OCC(=O)O
Summed up: as §1

Compound in assay [8]: Cc1ccc(-n2nc(C(C)(C)C)cc2NC(=O)Nc2ccc(OCCN3CCOCC3)c3ccccc23)cc1 [doramapimod]
The method, boiled down:
as §1

Compound in assay [9]: Cc1ccc(C(=O)N(CCCN)[C@@H](c2nc3cc(Cl)ccc3c(=O)n2Cc2ccccc2)C(C)C)cc1 [ispinesib]
Summed up:
as §1

Compound in assay [10]: CS(=O)(=O)c1ccc(-c2cnc(N)c(C(=O)Nc3ccccc3)n2)cc1
Summed up:
as §1

ALKBH1 (UniProt Q13686): the log2 fold change in assay [1] was inactive: 0.095; in assay [2], inactive: -0.026; in [3], inactive: 0.053; in assay [4], inactive: 0.067; in [5] it was inactive: 0.151; in [6], inactive: 0.101. Also, the results for the log2 fold change in assay [7], in assay [8] and in assay [9] were inactive: -0.005, inactive: 0.091 and inactive: -0.02, respectively.
As for ADD1 isoform 4 (UniProt P35611), the log2 fold change is inactive: 0.152 in assay [1]; inactive: -0.213 in [2]; inactive: 0.186 in assay [3]; inactive: -0.153 in [5]; inactive: -0.075 in assay [8].
On to ADGRL1 (UniProt O94910), for which, in [5], the log2 fold change was inactive: -0.211.
As to AEBP2 (UniProt Q6ZN18), the log2 fold change in assay [1] was inactive: 0.084; in assay [2], inactive: -0.017; in [8], inactive: -0.083.
As for AHSP (UniProt Q9NZD4), the log2 fold change in assay [9] is inactive: 0.301.
As to AIG1 (UniProt Q9NVV5), the log2 fold change is inactive: 0.198 in assay [4], inactive: 0.065 in assay [5], inactive: -0.146 in [6] and inactive: -0.287 in assay [7].
As to ALKBH7 (UniProt Q9BT30), the log2 fold change is inactive: 0.349 in assay [3], inactive: -0.01 in assay [5] and inactive: -0.048 in assay [9].
Turning to ALDH3A2 isoform 2 (UniProt P51648), the log2 fold change in [1] was inactive: 0.042; in assay [4], inactive: -0.018; in assay [7], inactive: 0.082; in assay [8], inactive: -0.01.
Consider ALOX12B (UniProt O75342), for which the log2 fold change in assay [10] is inactive: -0.149; in assay [4], inactive: -0.388; in assay [6], inactive: -0.084; in assay [7], inactive: -0.422; in [9], inactive: 0.347.
As for AGTPBP1 isoform 3 (UniProt Q9UPW5), the log2 fold change is inactive: 0.009 in assay [1]; inactive: 0.151 in [4]; inactive: -0.111 in assay [7]; inactive: -0.123 in assay [8]; inactive: -0.033 in assay [9].
For the target ALG13 isoform 2 (UniProt Q9NP73), the log2 fold change in assay [2] is inactive: 0.077; in [4], inactive: 0.052; in [5], inactive: -0.128; in assay [7], inactive: 0.068.
In the case of AKR1D1 (UniProt P51857), the log2 fold change in assay [3] is inactive: 0.157; in assay [4], inactive: 0.031; in assay [5], inactive: 0.134; in assay [6], inactive: -0.321; in assay [7], inactive: 0.029.
Turning to AMMECR1 (UniProt Q9Y4X0), the log2 fold change in [2] is inactive: 0.05; in assay [3], inactive: -0.219; in assay [4], inactive: 0.034; in assay [7], inactive: 0.056; in assay [9] it was inactive: -0.57.
For the target AIF1L isoform 2 (UniProt Q9BQI0), the log2 fold change is inactive: -0.036 in assay [2]; inactive: -0.164 in assay [3]; inactive: -0.019 in assay [4]; inactive: 0.02 in assay [5]; inactive: 0.264 in assay [7]; inactive: 0.02 in assay [9].
In the case of AGA (UniProt P20933), the log2 fold change was inactive: 0.118 in [3] and inactive: -0.041 in [5].
Consider ADD2 isoform 9 (UniProt P35612), for which the log2 fold change in assay [10] is inactive: -0.067; in [9], inactive: 0.04.
For the target AMBP (UniProt P02760), the log2 fold change in assay [1] is inactive: 0.19; in [3], inactive: 0.118; in assay [4], inactive: -0.332; in [5] it was inactive: -0.134; in assay [7], inactive: -0.205; in [8] it was inactive: -0.01.
As for AGAP1 (UniProt Q9UPQ3), the log2 fold change was inactive: -0.098 in assay [1]; inactive: -0.041 in assay [3]; inactive: -0.091 in [4]; inactive: 0.034 in [7]; inactive: 0.097 in assay [8]; inactive: -0.011 in assay [9].
For ALG14 (UniProt Q96F25), the log2 fold change in assay [1] was inactive: -0.034; in assay [2] it was inactive: -0.117; in assay [3] it was inactive: -0.042; in assay [5], active: -0.798; in [7], inactive: -0.002; in assay [8] it was inactive: -0.038. In addition, in assay [9], the log2 fold change was inactive: -0.018.
For the target ADIPOR2 (UniProt Q86V24), the log2 fold change in [3] was inactive: 0.099; in assay [4] it was inactive: 0.022; in [5], inactive: -0.047; in [6], inactive: -0.01; in assay [7], inactive: -0.069.
Turning to ANAPC11 (UniProt Q9NYG5), the log2 fold change is inactive: -0.027 in [3], inactive: 0.029 in assay [4] and inactive: -0.048 in assay [7].
With ANAPC13 (UniProt Q9BS18), in assay [2], the log2 fold change is inactive: 0.069.
For ALOX5 (UniProt P09917), the figures for the log2 fold change in assay [4], in [6] and in assay [7] were inactive: -0.042, inactive: -0.08 and inactive: -0.034, respectively.
